Reference: PubChem BioAssay AID248 (DTP/NCI, 2004)
The list does not hold the whole screen: it is rich in T/C values a quarter to a half above the control, in often repeated tests (any T/C) and in doses without a T/C. Other doses and runs of a compound stand elsewhere. T/C gives the treated animals as a percentage of the vehicle group. Some doses have a count of surviving animals in place of a T/C: the source holds a T/C of zero for them, seemingly a mark for toxic or unscored doses. Some survivor counts are full or nearly so, which does not show that the dose was tolerated: survival well below the control is almost never listed, so the zero probably covers shortened survival too. Survivors were counted at the toxicity check, usually on the fifth day, unless a day is given; later deaths do not show. Schedules are NCI's codes, taken here to give the interval after Q, in days (D) or hours (H), and the number of doses after X. Some doses were run more than once; the results are listed from low to high. Some schedules carry Z or #; the key to these is not given. Where survival is the endpoint, this PubChem deposit counts one and a half times the control or more as active, and values a quarter to a half above the control carry no call in these data; other NCI protocols may use other cut-offs. Brackets with × stand for listed records that agree. Some T/C values are followed by the survivors on the day toxicity was checked, most often the fifth; without a count, all were alive then.

Test system: L1210 leukemia ip in BDF1 mice, survival T/C
Assay: NCI In Vivo Anticancer Drug Screen. Data for tumor model L1210 Leukemia (intraperitoneal) in B6D2F1 (BDF1) mice
Conditions: higher T/C = longer survival

## CN(N=O)C(=O)N[C@@H](C=O)[C@@H](O)[C@H](O)[C@H](O)CO
T/C endpoint: mean survival time, dose: 12.5 mg/kg/injection, schedule: Q01DX009 (ip), vehicle: water
  T/C: 146 % of control
T/C endpoint: mean survival time, dose: 12.6 mg/kg/injection, schedule: Q01DX Z (ip), vehicle: water
  T/C: 125 % of control
T/C endpoint: mean survival time, dose: 18.0 mg/kg/injection, schedule: Q01DX009 (ip), vehicle: other
  T/C: 99, 105, 109, 130 % of control
T/C endpoint: mean survival time, dose: 24.6 mg/kg/injection, schedule: Q01DX Z (ip), vehicle: water
  T/C: 143 % of control
T/C endpoint: mean survival time, dose: 25.0 mg/kg/injection, schedule: Q01DX009 (ip), vehicle: citric acid
  T/C: 136 % of control
T/C endpoint: mean survival time, dose: 25.0 mg/kg/injection, schedule: Q01DX009 (ip), vehicle: saline, evaluated on day 18
  T/C: 107 % of control
T/C endpoint: mean survival time, dose: 25.0 mg/kg/injection, schedule: Q01DX009 (ip), vehicle: saline, evaluated on day 23
  T/C: 109 % of control
T/C endpoint: mean survival time, dose: 25.0 mg/kg/injection, schedule: Q01DX009 (ip), vehicle: saline, evaluated on day 30
  T/C: 112 % of control
T/C endpoint: mean survival time, dose: 25.0 mg/kg/injection, schedule: Q01DX009 (ip), vehicle: saline, evaluated on day 60
  T/C: 101 and 103 % of control
T/C endpoint: mean survival time, dose: 32.0 mg/kg/injection, schedule: Q01DX017 (ip), vehicle: other
  T/C: 130 % of control
T/C endpoint: mean survival time, dose: 33.0 mg/kg/injection, schedule: Q04DX002 (ip), vehicle: other
  T/C: 97, 103, 105, 106 % of control
T/C endpoint: mean survival time, dose: 35.0 mg/kg/injection, schedule: Q01DX009 (ip), vehicle: other
  T/C: 110, 126, 131, 133 % of control
T/C endpoint: mean survival time, dose: 50.0 mg/kg/injection, schedule: Q01DX009 (ip), vehicle: other
  T/C: 137 % of control
T/C endpoint: mean survival time, dose: 50.0 mg/kg/injection, schedule: Q01DX009 (ip), vehicle: saline, evaluated on day 18
  T/C: 112 % of control
T/C endpoint: mean survival time, dose: 50.0 mg/kg/injection, schedule: Q01DX009 (ip), vehicle: saline, evaluated on day 23
  T/C: 100 % of control
T/C endpoint: mean survival time, dose: 50.0 mg/kg/injection, schedule: Q01DX009 (ip), vehicle: saline, evaluated on day 30
  T/C: 134 % of control
T/C endpoint: mean survival time, dose: 50.0 mg/kg/injection, schedule: Q01DX009 (ip), vehicle: saline, evaluated on day 60
  T/C: 100 and 103 % of control
T/C endpoint: mean survival time, dose: 50.0 mg/kg/injection, schedule: Q01DX009 (ip), vehicle: water
  T/C: 137, 143, 148 % of control
T/C endpoint: mean survival time, dose: 50.0 mg/kg/injection, schedule: Q01DX Z (ip), vehicle: water
  T/C: 137 % of control
T/C endpoint: mean survival time, dose: 64.0 mg/kg/injection, schedule: Q01DX017 (ip), vehicle: other
  T/C: 128 % of control
T/C endpoint: mean survival time, dose: 64.0 mg/kg/injection, schedule: Q02DX009 (ip), vehicle: other
  T/C: 131 % of control
T/C endpoint: mean survival time, dose: 64.0 mg/kg/injection, schedule: Q## X009 (ip), vehicle: other
  T/C: 140 % of control
T/C endpoint: mean survival time, dose: 65.0 mg/kg/injection, schedule: Q04DX002 (ip), vehicle: other
  T/C: 101, 103, 110, 116 % of control
T/C endpoint: mean survival time, dose: 67.0 mg/kg/injection, schedule: Q01DX009 (ip), vehicle: citric acid
  T/C: 148 % of control
T/C endpoint: mean survival time, dose: 69.0 mg/kg/injection, schedule: Q01DX009 (ip), vehicle: other
  T/C: 133, 135, 147, 156 % of control
T/C endpoint: mean survival time, dose: 99.5 mg/kg/injection, schedule: Q01DX Z (ip), vehicle: water
  T/C: 136 % of control
T/C endpoint: mean survival time, dose: 99.6 mg/kg/injection, schedule: Q01DX Z (ip), vehicle: water
  T/C: 145 % of control
T/C endpoint: mean survival time, dose: 100.0 mg/kg/injection, schedule: Q01DX009 (ip), vehicle: saline, evaluated on day 18
  T/C: 121 % of control
T/C endpoint: mean survival time, dose: 100.0 mg/kg/injection, schedule: Q01DX009 (ip), vehicle: saline, evaluated on day 23
  T/C: 100 % of control
T/C endpoint: mean survival time, dose: 100.0 mg/kg/injection, schedule: Q01DX009 (ip), vehicle: saline, evaluated on day 30
  T/C: 155 % of control
T/C endpoint: mean survival time, dose: 100.0 mg/kg/injection, schedule: Q01DX009 (ip), vehicle: saline, evaluated on day 60
  T/C: 102 and 103 % of control
T/C endpoint: mean survival time, dose: 100.0 mg/kg/injection, schedule: Q01DX009 (ip), vehicle: water
  T/C: 138 % of control
T/C endpoint: mean survival time, dose: 100.0 mg/kg/injection, schedule: Q04DX002 (ip), vehicle: saline
  T/C: 126 % of control
T/C endpoint: mean survival time, dose: 128.0 mg/kg/injection, schedule: Q01DX017 (ip), vehicle: other
  survivor count: 10 of 10
T/C endpoint: mean survival time, dose: 128.0 mg/kg/injection, schedule: Q## X009 (ip), vehicle: other
  T/C: 125 % of control [9 of 10 alive]
T/C endpoint: mean survival time, dose: 130.0 mg/kg/injection, schedule: Q04DX002 (ip), vehicle: other
  T/C: 107, 116 (2×), 129 % of control
T/C endpoint: mean survival time, dose: 138.0 mg/kg/injection, schedule: Q01DX009 (ip), vehicle: other
  survivor count: 6 of 6
T/C endpoint: mean survival time, dose: 150.0 mg/kg/injection, schedule: Q01DX009 (ip), vehicle: citric acid
  T/C: 128 % of control
T/C endpoint: mean survival time, dose: 200.0 mg/kg/injection, schedule: Q01DX009 (ip), vehicle: citric acid
  survivor count: 7 of 10
T/C endpoint: mean survival time, dose: 200.0 mg/kg/injection, schedule: Q01DX009 (ip), vehicle: other
  survivor count: 3 of 6
T/C endpoint: mean survival time, dose: 200.0 mg/kg/injection, schedule: Q01DX009 (ip), vehicle: saline, evaluated on day 18
  T/C: 112 % of control
T/C endpoint: mean survival time, dose: 200.0 mg/kg/injection, schedule: Q01DX009 (ip), vehicle: saline, evaluated on day 23
  T/C: 106 % of control
T/C endpoint: mean survival time, dose: 200.0 mg/kg/injection, schedule: Q01DX009 (ip), vehicle: saline, evaluated on day 30
  T/C: 107 % of control
T/C endpoint: mean survival time, dose: 200.0 mg/kg/injection, schedule: Q01DX009 (ip), vehicle: saline, evaluated on day 60
  T/C: 91 % of control
T/C endpoint: mean survival time, dose: 200.0 mg/kg/injection, schedule: Q01DX009 (ip), vehicle: water
  survivor count: 0 of 6
T/C endpoint: mean survival time, dose: 200.0 mg/kg/injection, schedule: Q01DX Z (ip), vehicle: water
  survivor count: 7 of 7
T/C endpoint: mean survival time, dose: 200.0 mg/kg/injection, schedule: Q04DX002 (ip), vehicle: acid diluted with saline
  T/C: 142 % of control
T/C endpoint: mean survival time, dose: 200.0 mg/kg/injection, schedule: Q04DX002 (ip), vehicle: saline
  T/C: 134 and 149 % of control
T/C endpoint: mean survival time, dose: 256.0 mg/kg/injection, schedule: Q01DX017 (ip), vehicle: other
  survivor count: 0 of 10
T/C endpoint: mean survival time, dose: 256.0 mg/kg/injection, schedule: Q02DX009 (ip), vehicle: other
  survivor count: 9 of 10
T/C endpoint: mean survival time, dose: 256.0 mg/kg/injection, schedule: Q## X009 (ip), vehicle: other
  survivor count: 0 of 10
T/C endpoint: mean survival time, dose: 259.0 mg/kg/injection, schedule: Q04DX002 (ip), vehicle: other
  T/C: 114, 120, 130, 147 % of control
T/C endpoint: mean survival time, dose: 350.0 mg/kg/injection, schedule: Q01DX001 (ip), vehicle: citric acid
  T/C: 142 % of control [8 of 10 alive]
T/C endpoint: mean survival time, dose: 400.0 mg/kg/injection, schedule: Q01DX001 (ip), vehicle: citric acid
  T/C: 127 % of control [9 of 10 alive]
T/C endpoint: mean survival time, dose: 400.0 mg/kg/injection, schedule: Q01DX001 (ip), vehicle: other
  survivor count: 2 of 6
T/C endpoint: mean survival time, dose: 400.0 mg/kg/injection, schedule: Q04DX002 (ip), vehicle: acid diluted with saline
  survivor count: 3 of 3
T/C endpoint: mean survival time, dose: 500.0 mg/kg/injection, schedule: Q04DX002 (ip), vehicle: acid diluted with saline
  survivor count: 0 of 3
T/C endpoint: mean survival time, dose: 518.0 mg/kg/injection, schedule: Q04DX002 (ip), vehicle: other
  survivor count: 1 of 6
T/C endpoint: median survival time, dose: 23.0 mg/kg/injection, schedule: Q01DX009 (ip), vehicle: Klucel (hydroxypropylcellulose) (HPC)
  T/C: 133 % of control
T/C endpoint: median survival time, dose: 39.0 mg/kg/injection, schedule: Q01DX009 (ip), vehicle: water
  T/C: 132 % of control
T/C endpoint: median survival time, dose: 58.0 mg/kg/injection, schedule: Q01DX009 (ip), vehicle: water
  T/C: 129 and 139 % of control
T/C endpoint: median survival time, dose: 65.0 mg/kg/injection, schedule: Q01DX009 (ip), vehicle: Klucel (hydroxypropylcellulose) (HPC)
  T/C: 138 % of control
T/C endpoint: median survival time, dose: 87.0 mg/kg/injection, schedule: Q01DX009 (ip), vehicle: water
  T/C: 125 % of control
T/C endpoint: median survival time, dose: 108.0 mg/kg/injection, schedule: Q01DX009 (ip), vehicle: Klucel (hydroxypropylcellulose) (HPC)
  T/C: 127 % of control
T/C endpoint: median survival time, dose: 130.0 mg/kg/injection, schedule: Q01DX009 (ip), vehicle: water
  survivor count: 7 of 8
T/C endpoint: median survival time, dose: 200.0 mg/kg/injection, schedule: Q01DX009 (ip), vehicle: water
  survivor count: 4 of 8 and 8 of 8

## O=C(C[N+]12CN3CN(CN(C3)C1)C2)c1ccc(Br)cc1
T/C endpoint: mean survival time, dose: 400.0 mg/kg/injection, schedule: Q01DX009 (ip), vehicle: Klucel (hydroxypropylcellulose) (HPC)
  survivor count: 0 of 3

## CCOC(=O)NP(=O)(NC1CCCCC1)NC1CCCCC1
T/C endpoint: mean survival time, dose: 400.0 mg/kg/injection, schedule: Q01DX001 (ip), vehicle: alcohol
  survivor count: 1 of 4
